Results are given in words; binding and its absence hold for the method and conditions named. Binding seen in cells or lysates may run through a third protein. Some binding calls cover weakened binding; strength is not graded here. Sequences can lack the tags named with a protein.
Biological target: T1, GFP-Sec13 (UniProt P55735)
T1 sequence: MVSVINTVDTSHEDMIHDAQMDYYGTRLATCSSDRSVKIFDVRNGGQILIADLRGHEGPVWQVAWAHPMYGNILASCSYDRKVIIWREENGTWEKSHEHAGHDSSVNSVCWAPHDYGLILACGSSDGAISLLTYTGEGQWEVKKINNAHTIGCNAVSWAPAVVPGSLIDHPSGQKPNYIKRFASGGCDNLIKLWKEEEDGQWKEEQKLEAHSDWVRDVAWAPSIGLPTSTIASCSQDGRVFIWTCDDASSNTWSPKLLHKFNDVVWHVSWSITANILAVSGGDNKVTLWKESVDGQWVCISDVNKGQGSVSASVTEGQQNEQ
Assay: co-IP; HEK293 cells co-transfected with FLAG-tagged Sec31 (WT or mutants) and GFP-tagged Sec23 or GFP-Sec13; GFP-tagged protein immunoprecipitated with anti-GFP beads, blot with anti-FLAG; 10 mM HEPES-KOH pH 7.4, 100 mM KCl, 0.1 mM DTT, 2.5 mM MgCl2, 1% Triton X-100, 30 min at 4°C; in Figure 6 cells transfected two days before with or without siRNA1 to CK2 alpha1

B1: FLAG-tagged Sec31 S527A/S799A (protein, UniProt O94979 1-1220)
chain: MKLKEVDRTAMQAWSPAQNHPIYLATGTSAQQLDATFSTNASLEIFELDLSDPSLDMKSCATFSSSHRYHKLIWGPYKMDSKGDVSGVLIAGGENGNIILYDPSKIIAGDKEVVIAQNDKHTGPVRALDVNIFQTNLVASGANESEIYIWDLNNFATPMTPGAKTQPPEDISCIAWNRQVQHILASASPSGRATVWDLRKNEPIIKVSDHSNRMHCSGLAWHPDVATQMVLASEDDRLPVIQMWDLRFASSPLRVLENHARGILAIAWSMADPELLLSCGKDAKILCSNPNTGEVLYELPTNTQWCFDIQWCPRNPAVLSAASFDGRISVYSIMGGSTDGLRQKQVDKLSSSFGNLDPFGTGQPLPPLQIPQQTAQHSIVLPLKKPPKWIRRPVGASFSFGGKLVTFENVRMPSHQGAEQQQQQHHVFISQVVTEKEFLSRSDQLQQAVQSQGFINYCQKKIDASQTEFEKNVWSFLKVNFEDDSRGKYLELLGYRKEDLGKKIALALNKVDGANVALKDSDQVAQADGEESPAAEEQLLGEHIKEEKEESEFLPSSGGTFNISVSGDIDGLITQALLTGNFESAVDLCLHDNRMADAIILAIAGGQELLARTQKKYFAKSQSKITRLITAVVMKNWKEIVESCDLKNWREALAAVLTYAKPDEFSALCDLLGTRLENEGDSLLQTQACLCYICAGNVEKLVACWTKAQDGSHPLSLQDLIEKVVILRKAVQLTQAMDTSTVGVLLAAKMSQYANLLAAQGSIAAALAFLPDNTNQPNIMQLRDRLCRAQGEPVAGHEAPKIPYEKQQLPKGRPGPVAGHHQMPRVQTQQYYPHGENPPPPGFIMHGNVNPNAAGQLPTSPGHMHTQVPPYPQPQPYQPAQPYPFGTGGSAMYRPQQPVAPPTSNAYPNTPYISSASSYTGQSQLYAAQHQASSPTSSPATSFPPPPSSGASFQHGGPGAPPSSSAYALPPGTTGTLPAASELPASQRTGPQNGWNDPPALNRVPKKKKMPENFMPPVPITSPIMNPLGDPQSQMLQQQPSAPVPLSSQSSFPQPHLPGGQPFHGVQQPLGQTGMPPSFSKPNIEGAPGAPIGNTFQHVQSLPTKKITKKPIPDEHLILKTTFEDLIQRCLSSATDPQTKRKLDDASKRLEFLYDKLREQTLSPTITSGLHNIARSIETRNYSEGLTMHTHIVSTSNFSETSAFMPVLKVVLTQANKLGV
binding: binds

B2: FLAG-tagged wild type (WT) Sec31 (protein, UniProt O94979 1-1220)
chain: MKLKEVDRTAMQAWSPAQNHPIYLATGTSAQQLDATFSTNASLEIFELDLSDPSLDMKSCATFSSSHRYHKLIWGPYKMDSKGDVSGVLIAGGENGNIILYDPSKIIAGDKEVVIAQNDKHTGPVRALDVNIFQTNLVASGANESEIYIWDLNNFATPMTPGAKTQPPEDISCIAWNRQVQHILASASPSGRATVWDLRKNEPIIKVSDHSNRMHCSGLAWHPDVATQMVLASEDDRLPVIQMWDLRFASSPLRVLENHARGILAIAWSMADPELLLSCGKDAKILCSNPNTGEVLYELPTNTQWCFDIQWCPRNPAVLSAASFDGRISVYSIMGGSTDGLRQKQVDKLSSSFGNLDPFGTGQPLPPLQIPQQTAQHSIVLPLKKPPKWIRRPVGASFSFGGKLVTFENVRMPSHQGAEQQQQQHHVFISQVVTEKEFLSRSDQLQQAVQSQGFINYCQKKIDASQTEFEKNVWSFLKVNFEDDSRGKYLELLGYRKEDLGKKIALALNKVDGANVALKDSDQVAQSDGEESPAAEEQLLGEHIKEEKEESEFLPSSGGTFNISVSGDIDGLITQALLTGNFESAVDLCLHDNRMADAIILAIAGGQELLARTQKKYFAKSQSKITRLITAVVMKNWKEIVESCDLKNWREALAAVLTYAKPDEFSALCDLLGTRLENEGDSLLQTQACLCYICAGNVEKLVACWTKAQDGSHPLSLQDLIEKVVILRKAVQLTQAMDTSTVGVLLAAKMSQYANLLAAQGSIAAALAFLPDNTNQPNIMQLRDRLCRAQGEPVAGHESPKIPYEKQQLPKGRPGPVAGHHQMPRVQTQQYYPHGENPPPPGFIMHGNVNPNAAGQLPTSPGHMHTQVPPYPQPQPYQPAQPYPFGTGGSAMYRPQQPVAPPTSNAYPNTPYISSASSYTGQSQLYAAQHQASSPTSSPATSFPPPPSSGASFQHGGPGAPPSSSAYALPPGTTGTLPAASELPASQRTGPQNGWNDPPALNRVPKKKKMPENFMPPVPITSPIMNPLGDPQSQMLQQQPSAPVPLSSQSSFPQPHLPGGQPFHGVQQPLGQTGMPPSFSKPNIEGAPGAPIGNTFQHVQSLPTKKITKKPIPDEHLILKTTFEDLIQRCLSSATDPQTKRKLDDASKRLEFLYDKLREQTLSPTITSGLHNIARSIETRNYSEGLTMHTHIVSTSNFSETSAFMPVLKVVLTQANKLGV
binding: binds

B3: FLAG-tagged Sec31 S527A (protein, UniProt O94979 1-1220)
chain: MKLKEVDRTAMQAWSPAQNHPIYLATGTSAQQLDATFSTNASLEIFELDLSDPSLDMKSCATFSSSHRYHKLIWGPYKMDSKGDVSGVLIAGGENGNIILYDPSKIIAGDKEVVIAQNDKHTGPVRALDVNIFQTNLVASGANESEIYIWDLNNFATPMTPGAKTQPPEDISCIAWNRQVQHILASASPSGRATVWDLRKNEPIIKVSDHSNRMHCSGLAWHPDVATQMVLASEDDRLPVIQMWDLRFASSPLRVLENHARGILAIAWSMADPELLLSCGKDAKILCSNPNTGEVLYELPTNTQWCFDIQWCPRNPAVLSAASFDGRISVYSIMGGSTDGLRQKQVDKLSSSFGNLDPFGTGQPLPPLQIPQQTAQHSIVLPLKKPPKWIRRPVGASFSFGGKLVTFENVRMPSHQGAEQQQQQHHVFISQVVTEKEFLSRSDQLQQAVQSQGFINYCQKKIDASQTEFEKNVWSFLKVNFEDDSRGKYLELLGYRKEDLGKKIALALNKVDGANVALKDSDQVAQADGEESPAAEEQLLGEHIKEEKEESEFLPSSGGTFNISVSGDIDGLITQALLTGNFESAVDLCLHDNRMADAIILAIAGGQELLARTQKKYFAKSQSKITRLITAVVMKNWKEIVESCDLKNWREALAAVLTYAKPDEFSALCDLLGTRLENEGDSLLQTQACLCYICAGNVEKLVACWTKAQDGSHPLSLQDLIEKVVILRKAVQLTQAMDTSTVGVLLAAKMSQYANLLAAQGSIAAALAFLPDNTNQPNIMQLRDRLCRAQGEPVAGHESPKIPYEKQQLPKGRPGPVAGHHQMPRVQTQQYYPHGENPPPPGFIMHGNVNPNAAGQLPTSPGHMHTQVPPYPQPQPYQPAQPYPFGTGGSAMYRPQQPVAPPTSNAYPNTPYISSASSYTGQSQLYAAQHQASSPTSSPATSFPPPPSSGASFQHGGPGAPPSSSAYALPPGTTGTLPAASELPASQRTGPQNGWNDPPALNRVPKKKKMPENFMPPVPITSPIMNPLGDPQSQMLQQQPSAPVPLSSQSSFPQPHLPGGQPFHGVQQPLGQTGMPPSFSKPNIEGAPGAPIGNTFQHVQSLPTKKITKKPIPDEHLILKTTFEDLIQRCLSSATDPQTKRKLDDASKRLEFLYDKLREQTLSPTITSGLHNIARSIETRNYSEGLTMHTHIVSTSNFSETSAFMPVLKVVLTQANKLGV
binding: binds

B4: FLAG-tagged Sec31 S799A (protein, UniProt O94979 1-1220)
chain: MKLKEVDRTAMQAWSPAQNHPIYLATGTSAQQLDATFSTNASLEIFELDLSDPSLDMKSCATFSSSHRYHKLIWGPYKMDSKGDVSGVLIAGGENGNIILYDPSKIIAGDKEVVIAQNDKHTGPVRALDVNIFQTNLVASGANESEIYIWDLNNFATPMTPGAKTQPPEDISCIAWNRQVQHILASASPSGRATVWDLRKNEPIIKVSDHSNRMHCSGLAWHPDVATQMVLASEDDRLPVIQMWDLRFASSPLRVLENHARGILAIAWSMADPELLLSCGKDAKILCSNPNTGEVLYELPTNTQWCFDIQWCPRNPAVLSAASFDGRISVYSIMGGSTDGLRQKQVDKLSSSFGNLDPFGTGQPLPPLQIPQQTAQHSIVLPLKKPPKWIRRPVGASFSFGGKLVTFENVRMPSHQGAEQQQQQHHVFISQVVTEKEFLSRSDQLQQAVQSQGFINYCQKKIDASQTEFEKNVWSFLKVNFEDDSRGKYLELLGYRKEDLGKKIALALNKVDGANVALKDSDQVAQSDGEESPAAEEQLLGEHIKEEKEESEFLPSSGGTFNISVSGDIDGLITQALLTGNFESAVDLCLHDNRMADAIILAIAGGQELLARTQKKYFAKSQSKITRLITAVVMKNWKEIVESCDLKNWREALAAVLTYAKPDEFSALCDLLGTRLENEGDSLLQTQACLCYICAGNVEKLVACWTKAQDGSHPLSLQDLIEKVVILRKAVQLTQAMDTSTVGVLLAAKMSQYANLLAAQGSIAAALAFLPDNTNQPNIMQLRDRLCRAQGEPVAGHEAPKIPYEKQQLPKGRPGPVAGHHQMPRVQTQQYYPHGENPPPPGFIMHGNVNPNAAGQLPTSPGHMHTQVPPYPQPQPYQPAQPYPFGTGGSAMYRPQQPVAPPTSNAYPNTPYISSASSYTGQSQLYAAQHQASSPTSSPATSFPPPPSSGASFQHGGPGAPPSSSAYALPPGTTGTLPAASELPASQRTGPQNGWNDPPALNRVPKKKKMPENFMPPVPITSPIMNPLGDPQSQMLQQQPSAPVPLSSQSSFPQPHLPGGQPFHGVQQPLGQTGMPPSFSKPNIEGAPGAPIGNTFQHVQSLPTKKITKKPIPDEHLILKTTFEDLIQRCLSSATDPQTKRKLDDASKRLEFLYDKLREQTLSPTITSGLHNIARSIETRNYSEGLTMHTHIVSTSNFSETSAFMPVLKVVLTQANKLGV
binding: binds
